{"source": "patent US20240270851A1", "about": "(US Dept. of Health and Human Services, published 2024)", "key": {"[1]": {"biological_target": "T1, canine PD-L1 on canine tumor cell line Jones (canine) (UniProt E2RKZ5)", "T1 sequence": "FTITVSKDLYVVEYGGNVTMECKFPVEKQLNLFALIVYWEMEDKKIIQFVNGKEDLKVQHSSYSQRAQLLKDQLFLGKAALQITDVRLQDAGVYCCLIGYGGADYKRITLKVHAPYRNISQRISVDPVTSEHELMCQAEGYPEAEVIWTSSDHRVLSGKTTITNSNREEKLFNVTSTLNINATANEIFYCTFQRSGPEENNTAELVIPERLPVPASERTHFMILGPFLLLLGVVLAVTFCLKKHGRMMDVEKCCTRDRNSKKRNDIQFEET", "assay": "flow cytometry on canine tumor cells Jones (column 'Canine')"}, "[2]": {"biological_target": "T1, canine PD-L1 on canine tumor cell line Jones (canine)", "assay": "flow cytometry on canine tumor cell line Jones"}}, "note": "Results are given in words; binding and its absence hold for the method and conditions named. Some results given as binding are weak or reduced against the parent protein; the word gives no strength."}
{"binder": "Shark VNAR F5 (VNAR, Shark VNAR single-domain antibody) VNAR: ARVDQTPRSVTKETGESLTINCVLRDTNYALGSTYWYRKKLGSTNEESISKGGRYVETVNSGSKSFSLRINDLTVEDSGTYRCKNLGHPMYIAGAICRPLPIYGGGTVVTVN", "values": [{"measurement": "binding", "setting": "[1]", "value": "binds"}, {"measurement": "binding", "setting": "[2]", "value": "binds"}]}
{"binder": "Shark VNAR A11 (VNAR, Shark VNAR single-domain antibody) VNAR: ARVDQTPRSVTKETGESLTINCVLRDTSYALGSTYWYRKKSGSTNEESISKGGRYVETVNSGSKSFSLRINDLTVEDSGTYRCKFKSNTEFLNPLTVSMSTIYGGGTVVTVN", "values": [{"measurement": "binding", "setting": "[1]", "value": "binds"}, {"measurement": "binding", "setting": "[2]", "value": "binds"}]}
{"binder": "Shark VNAR B2 (VNAR, Shark VNAR single-domain antibody from the semi-synthetic 18AA CDR3 library; also called B2 nanobody; B2 clone) VNAR: ARVDQTPRSVTKETGESLTINCVLRDSSYALGSTYWYRKKSGSTNEESISKGGRYVETVNSGSKSFSLRINDLTVEDSGTYRCKYTSRLRREGPLSWDGNTVYGGGTVVTVN", "values": [{"measurement": "binding", "setting": "[2]", "value": "binds"}]}
